At least one structure is not confirmed: it was looked up by name or label, or the drawing left a doubt.
Tested on: db/db mice
Assay: Blood triglyceride levels in db/db mice (Example 1)
Assay type: in vivo
Settings: normal level 1.2±0.08 mM in C57BL/6J mice

CN(CCOc1ccc(CC2SC(=O)NC2=O)cc1)c1ccccn1 (stereo not shown) [Rosiglitazone, reference compound]
blood triglyceride levels relative to normal level: reduced to below normal level

From patent US20090203610A1, “METHODS OF TREATING OBESITY OR DIABETES USING NT-4/5” (RINAT NEUROSCIENCE CORPORATION, priority 2004, published 2009)
